The source of these data is patent US20080056997A1.

The chains behind the UniProt entries cited, without tags or fusion partners. Residues count along the entry.
UniProt P24821, residues 1533-1621: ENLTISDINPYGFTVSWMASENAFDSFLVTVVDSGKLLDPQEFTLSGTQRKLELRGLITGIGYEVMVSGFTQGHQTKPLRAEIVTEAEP

No constants are given. Whether binding was seen depends on the method and setting. Some binding calls cover weakened binding; strength is not graded here.

The experiment addresses domain C of human tenascin-C (human) (UniProt P24821). Description: phage display selection and screening as in Example 2.

B1: scFv F4 (against the C domain of tenascin-C) (scFv)
scFv: EVQLVESGGGLVQPGGSLRLSCAASGFTFSGSRMGWVRQAPGKGLEWVSAINEEGGQTYYADSVKGRFTISRDNSKNTLYLQMNSLRAEDTAVYYCAKHPPHRPFDYWGQGTLVTVSRGGGGSGGGGSGGGGSSELTQDPAVSVALGQTVRITCQGDSLRLYYASWYQQKPGQAPVLVIYGKSSRPSGIPDRFSGSSSGNTASLTITGAQAEDEADYYCNSSHGPRRPVVFGGGTKLTVLG
With B1, the binding result is recorded as “binds”.

B2: scFv G11 (against the C domain of tenascin-C) (scFv)
scFv: EVQLVESGGGLVQPGGSLRLSCAASGFTFSGSRMGWVRQAPGKGLEWVSAINEEGGQTYYADSVKGRFTISRDNSKNTLYLQMNSLRAEDTAVYYCAKHPPHRPFDYWGQGTLVTVSRGGGGSGGGGSGGGGSSELTQDPAVSVALGQTVRITCQGDSLRLYYASWYQQKPGQAPVLVIYGKNNRPSGIPDRFSGSSSGNTASLTITGAQAEDEADYYCNSSHGPRRPVVFGGGTKLTVLG
Regarding B2, the binding result is listed as “binds”.
